Source: publication PMC4357451
These are yes or no findings as the source states them, for the method shown. In cells and extracts the contact can be indirect. Some entries that bind do so weakly or less than the wild type. Tags and fused reporters may be left off the sequences shown.

The chains behind the UniProt entries cited, without tags or fusion partners. Where a name states a change or a piece, a line headed by the entry shows the natural chain unless it says otherwise. A line that says so, or that is headed by a name, gives the form on record, which may keep a tag or linker.
USP9X (ubiquitin-specific peptidase 9 X-linked), endogenous in HEK293T cells (Q93008-3, form named): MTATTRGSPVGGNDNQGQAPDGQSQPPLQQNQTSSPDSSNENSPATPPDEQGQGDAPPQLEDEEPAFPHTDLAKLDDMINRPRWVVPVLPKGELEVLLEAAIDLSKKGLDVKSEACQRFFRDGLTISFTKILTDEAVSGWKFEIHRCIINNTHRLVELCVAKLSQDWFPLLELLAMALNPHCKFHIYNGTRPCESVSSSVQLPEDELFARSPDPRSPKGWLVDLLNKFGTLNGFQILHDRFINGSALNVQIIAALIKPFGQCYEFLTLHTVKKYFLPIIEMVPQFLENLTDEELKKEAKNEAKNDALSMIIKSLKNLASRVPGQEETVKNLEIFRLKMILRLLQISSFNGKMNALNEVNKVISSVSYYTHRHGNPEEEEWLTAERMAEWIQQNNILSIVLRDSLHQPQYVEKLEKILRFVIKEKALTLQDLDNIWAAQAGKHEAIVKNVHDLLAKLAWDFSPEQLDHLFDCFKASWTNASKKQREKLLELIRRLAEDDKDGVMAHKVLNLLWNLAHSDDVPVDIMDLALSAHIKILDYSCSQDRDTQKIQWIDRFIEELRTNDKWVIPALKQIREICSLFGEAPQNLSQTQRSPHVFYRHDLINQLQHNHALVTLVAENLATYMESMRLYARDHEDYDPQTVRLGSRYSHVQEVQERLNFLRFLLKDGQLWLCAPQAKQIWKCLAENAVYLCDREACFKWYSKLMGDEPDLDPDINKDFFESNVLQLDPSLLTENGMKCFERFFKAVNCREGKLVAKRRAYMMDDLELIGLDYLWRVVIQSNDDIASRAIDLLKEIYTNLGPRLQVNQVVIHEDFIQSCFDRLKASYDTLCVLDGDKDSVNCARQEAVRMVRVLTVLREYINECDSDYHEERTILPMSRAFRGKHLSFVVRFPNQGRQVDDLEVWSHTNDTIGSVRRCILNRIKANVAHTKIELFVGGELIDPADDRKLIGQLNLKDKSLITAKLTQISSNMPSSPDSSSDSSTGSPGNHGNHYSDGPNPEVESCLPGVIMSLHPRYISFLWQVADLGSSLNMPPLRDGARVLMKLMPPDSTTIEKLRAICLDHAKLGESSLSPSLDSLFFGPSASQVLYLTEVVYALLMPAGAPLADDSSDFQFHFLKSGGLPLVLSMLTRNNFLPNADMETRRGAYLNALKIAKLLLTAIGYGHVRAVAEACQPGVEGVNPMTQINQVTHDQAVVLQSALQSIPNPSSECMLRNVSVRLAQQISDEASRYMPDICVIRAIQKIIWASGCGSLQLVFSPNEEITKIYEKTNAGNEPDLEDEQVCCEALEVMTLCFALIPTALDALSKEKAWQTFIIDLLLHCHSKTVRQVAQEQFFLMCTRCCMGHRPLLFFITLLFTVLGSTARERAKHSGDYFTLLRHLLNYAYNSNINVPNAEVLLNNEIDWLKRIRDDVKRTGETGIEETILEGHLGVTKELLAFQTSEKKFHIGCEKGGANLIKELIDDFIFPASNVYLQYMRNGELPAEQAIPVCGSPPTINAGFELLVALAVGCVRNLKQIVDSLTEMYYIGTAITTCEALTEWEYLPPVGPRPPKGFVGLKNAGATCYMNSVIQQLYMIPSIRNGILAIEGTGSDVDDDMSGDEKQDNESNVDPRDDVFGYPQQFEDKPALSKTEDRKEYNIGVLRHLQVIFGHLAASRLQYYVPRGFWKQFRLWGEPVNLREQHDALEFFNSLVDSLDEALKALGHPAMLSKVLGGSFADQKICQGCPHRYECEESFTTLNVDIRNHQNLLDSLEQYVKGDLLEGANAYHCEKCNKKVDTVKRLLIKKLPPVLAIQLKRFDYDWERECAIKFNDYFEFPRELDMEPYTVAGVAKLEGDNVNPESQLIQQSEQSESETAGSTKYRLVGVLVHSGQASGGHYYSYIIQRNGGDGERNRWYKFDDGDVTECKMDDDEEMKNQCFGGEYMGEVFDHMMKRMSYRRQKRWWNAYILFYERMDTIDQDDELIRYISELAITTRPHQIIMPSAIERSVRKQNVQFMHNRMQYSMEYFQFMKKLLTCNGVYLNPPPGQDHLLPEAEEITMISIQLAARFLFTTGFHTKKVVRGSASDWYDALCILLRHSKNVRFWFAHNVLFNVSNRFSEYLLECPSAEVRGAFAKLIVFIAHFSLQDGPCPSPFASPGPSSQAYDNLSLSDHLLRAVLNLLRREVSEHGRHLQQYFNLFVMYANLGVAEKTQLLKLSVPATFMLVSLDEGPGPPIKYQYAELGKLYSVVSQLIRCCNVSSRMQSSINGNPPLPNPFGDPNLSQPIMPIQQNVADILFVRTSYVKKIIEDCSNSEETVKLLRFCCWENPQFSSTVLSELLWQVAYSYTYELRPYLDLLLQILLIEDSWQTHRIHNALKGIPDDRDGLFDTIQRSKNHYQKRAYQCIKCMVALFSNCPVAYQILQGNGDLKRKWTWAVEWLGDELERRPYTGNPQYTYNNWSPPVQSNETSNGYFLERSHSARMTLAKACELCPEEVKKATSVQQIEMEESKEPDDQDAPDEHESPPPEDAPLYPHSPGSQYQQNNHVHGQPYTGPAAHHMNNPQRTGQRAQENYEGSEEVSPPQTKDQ

Tests used:
Assay in all cases: co-IP; HEK293T transfected with Flag-tagged PRICKLE constructs, lysed in NET-100 after 48 h, anti-Flag beads overnight at 4°C; blots with anti-USP9X and anti-BCR for the endogenous proteins
[1] = biological target: T1, Flag-CPRICKLE1 (C-terminus of PRICKLE1, aa 314 to 831) (human) (UniProt Q96MT3)
T1 sequence: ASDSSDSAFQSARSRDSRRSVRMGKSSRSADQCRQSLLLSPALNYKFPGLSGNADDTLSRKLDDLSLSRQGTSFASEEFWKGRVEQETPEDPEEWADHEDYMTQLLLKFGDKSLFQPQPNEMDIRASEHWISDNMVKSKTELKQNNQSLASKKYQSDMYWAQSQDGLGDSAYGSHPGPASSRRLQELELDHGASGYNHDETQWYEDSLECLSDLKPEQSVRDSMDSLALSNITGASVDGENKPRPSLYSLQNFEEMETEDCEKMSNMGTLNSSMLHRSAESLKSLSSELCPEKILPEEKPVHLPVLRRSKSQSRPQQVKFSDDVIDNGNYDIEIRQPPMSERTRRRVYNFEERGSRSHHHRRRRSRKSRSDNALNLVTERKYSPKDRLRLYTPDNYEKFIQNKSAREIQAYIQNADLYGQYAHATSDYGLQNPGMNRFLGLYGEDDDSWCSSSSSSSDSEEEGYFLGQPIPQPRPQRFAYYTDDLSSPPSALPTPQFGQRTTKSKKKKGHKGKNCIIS

[2] = biological target: T2, Flag-CPRICKLE2 (C-terminus of PRICKLE2, aa 318 to 844) (human) (UniProt Q7Z3G6)
T2 sequence: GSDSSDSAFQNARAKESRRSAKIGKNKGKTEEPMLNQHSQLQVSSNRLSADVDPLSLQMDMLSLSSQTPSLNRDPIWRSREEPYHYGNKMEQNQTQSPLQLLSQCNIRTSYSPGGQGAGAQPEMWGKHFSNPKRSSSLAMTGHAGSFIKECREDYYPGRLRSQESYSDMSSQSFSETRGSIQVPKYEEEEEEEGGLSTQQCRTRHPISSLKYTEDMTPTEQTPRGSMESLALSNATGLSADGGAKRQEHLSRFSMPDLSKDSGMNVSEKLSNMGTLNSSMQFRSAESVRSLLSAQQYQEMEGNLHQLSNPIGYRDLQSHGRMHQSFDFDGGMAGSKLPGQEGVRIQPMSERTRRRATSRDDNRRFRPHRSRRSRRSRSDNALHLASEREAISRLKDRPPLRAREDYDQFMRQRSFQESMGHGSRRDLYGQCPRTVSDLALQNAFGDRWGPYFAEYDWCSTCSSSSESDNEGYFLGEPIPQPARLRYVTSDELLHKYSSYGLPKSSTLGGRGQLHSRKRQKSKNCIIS

[3] = biological target: T3, Flag-PRICKLE1 (human) (UniProt Q96MT3)
T3 sequence: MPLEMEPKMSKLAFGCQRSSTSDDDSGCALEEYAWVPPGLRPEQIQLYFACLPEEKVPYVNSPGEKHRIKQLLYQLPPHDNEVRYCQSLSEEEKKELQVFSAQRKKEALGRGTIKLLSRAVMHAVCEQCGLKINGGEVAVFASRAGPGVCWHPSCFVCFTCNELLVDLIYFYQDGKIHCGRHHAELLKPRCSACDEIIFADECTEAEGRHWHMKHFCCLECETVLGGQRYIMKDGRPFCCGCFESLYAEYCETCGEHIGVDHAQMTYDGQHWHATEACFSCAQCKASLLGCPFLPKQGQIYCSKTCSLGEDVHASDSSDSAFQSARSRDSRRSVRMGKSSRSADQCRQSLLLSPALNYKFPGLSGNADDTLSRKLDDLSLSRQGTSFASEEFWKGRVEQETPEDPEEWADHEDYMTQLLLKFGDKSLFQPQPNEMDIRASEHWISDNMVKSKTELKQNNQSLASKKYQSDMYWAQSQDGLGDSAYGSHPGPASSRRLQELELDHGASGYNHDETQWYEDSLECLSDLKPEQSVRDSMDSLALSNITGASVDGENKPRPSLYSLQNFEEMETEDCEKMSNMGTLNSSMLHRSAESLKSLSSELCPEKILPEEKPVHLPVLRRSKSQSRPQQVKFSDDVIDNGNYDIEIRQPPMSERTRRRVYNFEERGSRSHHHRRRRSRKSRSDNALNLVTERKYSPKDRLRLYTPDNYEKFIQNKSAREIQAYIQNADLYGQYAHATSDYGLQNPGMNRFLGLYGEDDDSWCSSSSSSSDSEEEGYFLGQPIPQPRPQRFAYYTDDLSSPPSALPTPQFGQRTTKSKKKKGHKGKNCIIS

[4] = biological target: T4, Flag-PRICKLE2 (human) (UniProt Q7Z3G6)
T4 sequence: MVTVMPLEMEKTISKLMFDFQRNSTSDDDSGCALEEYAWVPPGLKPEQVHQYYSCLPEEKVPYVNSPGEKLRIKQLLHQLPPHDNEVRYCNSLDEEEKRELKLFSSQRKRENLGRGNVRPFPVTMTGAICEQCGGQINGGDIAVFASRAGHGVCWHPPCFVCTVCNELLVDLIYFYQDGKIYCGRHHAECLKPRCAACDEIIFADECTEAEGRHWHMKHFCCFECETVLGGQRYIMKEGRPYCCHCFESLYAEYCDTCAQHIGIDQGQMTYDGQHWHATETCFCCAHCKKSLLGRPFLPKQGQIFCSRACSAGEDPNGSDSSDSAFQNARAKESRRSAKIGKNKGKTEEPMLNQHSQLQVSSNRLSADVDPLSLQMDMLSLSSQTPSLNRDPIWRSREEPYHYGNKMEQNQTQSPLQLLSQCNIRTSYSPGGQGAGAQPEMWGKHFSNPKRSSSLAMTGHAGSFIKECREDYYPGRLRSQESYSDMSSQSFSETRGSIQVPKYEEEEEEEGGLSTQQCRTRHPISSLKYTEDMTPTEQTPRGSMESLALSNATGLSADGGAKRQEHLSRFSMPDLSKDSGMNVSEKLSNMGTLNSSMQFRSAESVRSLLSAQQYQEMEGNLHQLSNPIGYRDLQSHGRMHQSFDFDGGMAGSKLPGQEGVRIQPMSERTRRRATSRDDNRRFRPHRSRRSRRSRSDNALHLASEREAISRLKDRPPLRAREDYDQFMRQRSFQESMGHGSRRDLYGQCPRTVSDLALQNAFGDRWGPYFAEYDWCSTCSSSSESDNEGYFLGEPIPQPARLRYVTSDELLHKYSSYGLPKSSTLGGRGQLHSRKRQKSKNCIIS

[5] = biological target: T5, Flag-NPRICKLE1 (N-terminus of PRICKLE1, aa 1 to 313) (human) (UniProt Q96MT3)
T5 sequence: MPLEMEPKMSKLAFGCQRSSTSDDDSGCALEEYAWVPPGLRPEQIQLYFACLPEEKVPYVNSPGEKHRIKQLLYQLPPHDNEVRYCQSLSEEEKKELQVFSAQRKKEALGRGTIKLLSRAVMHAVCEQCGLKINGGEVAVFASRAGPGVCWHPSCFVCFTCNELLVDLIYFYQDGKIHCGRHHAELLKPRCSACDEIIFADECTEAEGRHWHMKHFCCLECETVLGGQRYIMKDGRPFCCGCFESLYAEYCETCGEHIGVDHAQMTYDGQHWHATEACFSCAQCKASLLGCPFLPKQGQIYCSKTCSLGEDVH

[6] = biological target: T6, Flag-NPRICKLE2 (N-terminus of PRICKLE2, aa 1 to 317) (human) (UniProt Q7Z3G6)
T6 sequence: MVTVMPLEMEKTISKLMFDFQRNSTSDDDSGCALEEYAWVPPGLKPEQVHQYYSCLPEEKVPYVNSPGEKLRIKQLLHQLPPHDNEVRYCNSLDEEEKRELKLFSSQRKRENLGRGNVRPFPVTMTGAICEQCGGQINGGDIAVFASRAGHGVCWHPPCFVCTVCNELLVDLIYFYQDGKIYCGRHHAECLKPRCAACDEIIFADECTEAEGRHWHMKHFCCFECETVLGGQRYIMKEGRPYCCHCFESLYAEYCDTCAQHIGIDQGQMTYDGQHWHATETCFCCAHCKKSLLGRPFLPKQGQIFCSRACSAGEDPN

Measured: binding

USP9X (ubiquitin-specific peptidase 9 X-linked), endogenous in HEK293T cells (from UniProt Q93008-3 1-2570) (enzyme)
binds: [1] | [2] | [3] | [4]

B1: BCR, endogenous in HEK293T cells (protein, UniProt P11274 1-1271)
chain: MVDPVGFAEAWKAQFPDSEPPRMELRSVGDIEQELERCKASIRRLEQEVNQERFRMIYLQTLLAKEKKSYDRQRWGFRRAAQAPDGASEPRASASRPQPAPADGADPPPAEEPEARPDGEGSPGKARPGTARRPGAAASGERDDRGPPASVAALRSNFERIRKGHGQPGADAEKPFYVNVEFHHERGLVKVNDKEVSDRISSLGSQAMQMERKKSQHGAGSSVGDASRPPYRGRSSESSCGVDGDYEDAELNPRFLKDNLIDANGGSRPPWPPLEYQPYQSIYVGGMMEGEGKGPLLRSQSTSEQEKRLTWPRRSYSPRSFEDCGGGYTPDCSSNENLTSSEEDFSSGQSSRVSPSPTTYRMFRDKSRSPSQNSQQSFDSSSPPTPQCHKRHRHCPVVVSEATIVGVRKTGQIWPNDGEGAFHGDADGSFGTPPGYGCAADRAEEQRRHQDGLPYIDDSPSSSPHLSSKGRGSRDALVSGALESTKASELDLEKGLEMRKWVLSGILASEETYLSHLEALLLPMKPLKAAATTSQPVLTSQQIETIFFKVPELYEIHKEFYDGLFPRVQQWSHQQRVGDLFQKLASQLGVYRAFVDNYGVAMEMAEKCCQANAQFAEISENLRARSNKDAKDPTTKNSLETLLYKPVDRVTRSTLVLHDLLKHTPASHPDHPLLQDALRISQNFLSSINEEITPRRQSMTVKKGEHRQLLKDSFMVELVEGARKLRHVFLFTDLLLCTKLKKQSGGKTQQYDCKWYIPLTDLSFQMVDELEAVPNIPLVPDEELDALKIKISQIKNDIQREKRANKGSKATERLKKKLSEQESLLLLMSPSMAFRVHSRNGKSYTFLISSDYERAEWRENIREQQKKCFRSFSLTSVELQMLTNSCVKLQTVHSIPLTINKEDDESPGLYGFLNVIVHSATGFKQSSNLYCTLEVDSFGYFVNKAKTRVYRDTAEPNWNEEFEIELEGSQTLRILCYEKCYNKTKIPKEDGESTDRLMGKGQVQLDPQALQDRDWQRTVIAMNGIEVKLSVKFNSREFSLKRMPSRKQTGVFGVKIAVVTKRERSKVPYIVRQCVEEIERRGMEEVGIYRVSGVATDIQALKAAFDVNNKDVSVMMSEMDVNAIAGTLKLYFRELPEPLFTDEFYPNFAEGIALSDPVAKESCMLNLLLSLPEANLLTFLFLLDHLKRVAEKEAVNKMSLHNLATVFGPTLLRPSEKESKLPANPSQPITMTDSWSLEVMSQVQVLLYFLQLEAIPAPDSKRQSILFSTEV
binds: [5] | [6]
